Assay results: PMC9242446
No constants are given. Whether binding was seen depends on the method and setting. Some binding calls cover weakened binding; strength is not graded here.

Biological target: Bacillus subtilis ParB (partition protein B) L5C variant labeled with Alexa Fluor 647 (Bacillus subtilis) (UniProt P26497)
Experiment: single-molecule fluorescence imaging (HiLo microscopy) on stretched DNA; as a1 but 1 mM CTPγS in place of 1 mM CTP; both purified

binding: binds weakly
B1: Bacillus subtilis ParB (partition protein B) L5C variant labeled with Alexa Fluor 647 (protein, UniProt P26497 1-282)
chain: MAKGCGKGINALFNQVDLSEETVEEIKIADLRPNPYQPRKHFDDEALAELKESVLQHGILQPLIVRKSLKGYDIVAGERRFRAAKLAGLDTVPAIVRELSEALMREIALLENLQREDLSPLEEAQAYDSLLKHLDLTQEQLAKRLGKSRPHIANHLRLLTLPENIQQLIAEGTLSMGHGRTLLGLKNKNKLEPLVQKVIAEQLNVRQLEQLIQQLNQNVPRETKKKEPVKDAVLKERESYLQNYFGTTVNIKRQKKKGKIEIEFFSNEDLDRILELLSERES
modifications: Alexa Fluor 647-C2-maleimide on the L5C variant (labeling efficiency 74%)
